Measured values: PMC9909590
No constants are given. Whether binding was seen depends on the method and setting. In cells and extracts the contact can be indirect. Some binding calls cover weakened binding; strength is not graded here. Sequences can lack the tags named with a protein.

Protein sequences, listed by entry. Tags and fused reporters are not part of them.
UniProt P13681: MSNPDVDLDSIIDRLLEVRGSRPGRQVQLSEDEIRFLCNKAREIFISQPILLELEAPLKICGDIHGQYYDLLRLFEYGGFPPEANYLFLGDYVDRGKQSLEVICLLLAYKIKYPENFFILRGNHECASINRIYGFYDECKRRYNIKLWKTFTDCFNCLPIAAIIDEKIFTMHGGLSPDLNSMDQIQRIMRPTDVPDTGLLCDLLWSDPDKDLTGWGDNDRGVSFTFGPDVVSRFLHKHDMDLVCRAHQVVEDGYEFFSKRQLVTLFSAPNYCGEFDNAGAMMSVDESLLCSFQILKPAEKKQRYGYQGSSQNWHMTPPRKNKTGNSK

Tests used:
[1] = molecular target: Dis2-13Myc (PP1) (Schizosaccharomyces pombe) (UniProt P13681); test: co-IP; extracts of S. pombe cells expressing both Flag-tagged Rif1 and Myc-tagged PP1; PP1 immunoprecipitated with anti-c-Myc antibody on Protein G Dynabeads, 1 h; IP buffer 20 mM HEPES-KOH pH 7.6, 50 mM potassium acetate, 5 mM magnesium acetate, 0.1 M sorbitol, 0.1% Triton X-100, 2 mM DTT; co-immunoprecipitated Rif1 detected by blot
[2] = molecular target: T1, Sds21-13Myc (PP1) (Schizosaccharomyces pombe) (UniProt P23880); test: as above
T1 sequence: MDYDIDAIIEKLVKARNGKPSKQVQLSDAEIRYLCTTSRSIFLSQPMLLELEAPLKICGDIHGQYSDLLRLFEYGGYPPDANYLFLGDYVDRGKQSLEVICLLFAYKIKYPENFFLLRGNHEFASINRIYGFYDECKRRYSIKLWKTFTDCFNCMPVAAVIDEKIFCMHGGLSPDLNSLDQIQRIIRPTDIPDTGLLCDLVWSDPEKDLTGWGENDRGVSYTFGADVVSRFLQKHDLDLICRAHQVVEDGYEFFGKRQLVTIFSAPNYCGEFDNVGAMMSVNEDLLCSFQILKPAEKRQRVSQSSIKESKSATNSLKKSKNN

binding [1]: binds | binding [2]: binds
B1: Rif1-Flag3 (full-length Rif1, 1-1,400 aa) (protein, UniProt Q96UP3 1-1400)
chain: MTKEIAVKEASNMLLQEPSTPSSQAVGLSSSPSSSIRKKKVNFSSELENSPGGNRPSFGLPKRGILKTSTPLSSIKQPNFQSFEGNESEKETSLQELQSSFCSGIENLQHVEKSARIETYSKLSSFLKIYTPSLPEDPIFPLLNQLCNFLLSDRCSNNSEGSPDFQLNTQANKLLSILLWHPTISSHIQPETATVFIEQSLNFLEGPKLTKALAAQHLHLLSCQKCPLSIHPLCNRILDVCFNISFPSLVIGQERLAVLTKILSQFPLEFSRRVVDWAPYLLACLVDASRPIREKALLLALDLSKHLYHDKLVARTILANFRSDIKGTAFVLIMTEQFEKLVIEEDDGVYVAHAWAAIISVLGGARISSWEYFNTWLKIIQLCFNSMNPLTKCAAQTSWIRLIHEFSLSETLTQATKRLTLLCQPISMVLGSRNLPTVKNAAMTTLIALIYACLRPGISDAMLSLLWDSVIVNILEKCALKNEVTIFESSNILLALFNTLSNGVWKDDRLVCRESVEAKELPKLNPVWVRANCSRTIEPVKTLLLLAKPDHTVKTTTPARKQHIRGLSYEQSSSVWSTYIKCLASAGQKEIKRSVETGRAICCICSSLHKFLYSKSIRKDELYVERVSRFALMVKSAIEAFGINTFVEASYLVSDNQLVLIDQTKAIDSYDHVPISPLIYLLHSLALLTNGTLFSTVHAAYSSILSSIEEYHLRFGLKLMLLWDCVSPLSDDGTLVLARVLVSHEVSRLTSEALLSELKSRNGNNSVEEGFSEEERSILLKLLSWNVKFCSISDAGSVNNLLQQYFTAIYKFEGCGSVFPFVVDPFTTILDDVLSFEANKVYSFAISLMKVSTFESCTKELPPVTLPENIRQHLDSYNHMVELYNTLLQRLSSSDQVDLQCRYLHELSEFIKKIPKEFIFHTICKLSKGLIPCFLMNAFPQLEKSTTLQKSCTNFCILILQLLLNSTATASNILESLSPLLTSGLKSISKEVVLAAIKFWNQVFGKFESEEYPIELQKTISYLSKTYIILLPFQSLCPGGKQANHQSSEKMSDILKGVDELRSVSKNGPYASSQDKGEKTTEFSGPGKPNNDNYIQIASVQELDDSSKGKAGKMPASKKNKRQKGDVKKIDETKNEATDMEESLTTPSGKVNKEVIVDDTSLRDEAIVPDKAIDVADNSNALLKENISSQSNRKADNNGTPSVNNSFTTANNDECSKENSQIEPEGQTASREGVLSTPRSTRKKRKLGRKSQSSNVNKEVAISEVSATLENVEVIERHGISEQGQNLDESACVLTNESSLSQTEIPEEKTENETTAVNGFENSKKRQFSSLLSGSIDTNNESNKVSSVEFDKSGPQDIIQSMTEATFEIEKNIQDLKSEEVQKLSDLLMRLQRAILSRIA
